The source of these data is paper doi:10.1101/2023.05.16.540868 (bioRxiv, 2023).

This experiment addresses T1, full-length SPD-5, dephosphorylated (incubated with kinase dead PLK-1) (C. elegans), P91349.
T1 chain: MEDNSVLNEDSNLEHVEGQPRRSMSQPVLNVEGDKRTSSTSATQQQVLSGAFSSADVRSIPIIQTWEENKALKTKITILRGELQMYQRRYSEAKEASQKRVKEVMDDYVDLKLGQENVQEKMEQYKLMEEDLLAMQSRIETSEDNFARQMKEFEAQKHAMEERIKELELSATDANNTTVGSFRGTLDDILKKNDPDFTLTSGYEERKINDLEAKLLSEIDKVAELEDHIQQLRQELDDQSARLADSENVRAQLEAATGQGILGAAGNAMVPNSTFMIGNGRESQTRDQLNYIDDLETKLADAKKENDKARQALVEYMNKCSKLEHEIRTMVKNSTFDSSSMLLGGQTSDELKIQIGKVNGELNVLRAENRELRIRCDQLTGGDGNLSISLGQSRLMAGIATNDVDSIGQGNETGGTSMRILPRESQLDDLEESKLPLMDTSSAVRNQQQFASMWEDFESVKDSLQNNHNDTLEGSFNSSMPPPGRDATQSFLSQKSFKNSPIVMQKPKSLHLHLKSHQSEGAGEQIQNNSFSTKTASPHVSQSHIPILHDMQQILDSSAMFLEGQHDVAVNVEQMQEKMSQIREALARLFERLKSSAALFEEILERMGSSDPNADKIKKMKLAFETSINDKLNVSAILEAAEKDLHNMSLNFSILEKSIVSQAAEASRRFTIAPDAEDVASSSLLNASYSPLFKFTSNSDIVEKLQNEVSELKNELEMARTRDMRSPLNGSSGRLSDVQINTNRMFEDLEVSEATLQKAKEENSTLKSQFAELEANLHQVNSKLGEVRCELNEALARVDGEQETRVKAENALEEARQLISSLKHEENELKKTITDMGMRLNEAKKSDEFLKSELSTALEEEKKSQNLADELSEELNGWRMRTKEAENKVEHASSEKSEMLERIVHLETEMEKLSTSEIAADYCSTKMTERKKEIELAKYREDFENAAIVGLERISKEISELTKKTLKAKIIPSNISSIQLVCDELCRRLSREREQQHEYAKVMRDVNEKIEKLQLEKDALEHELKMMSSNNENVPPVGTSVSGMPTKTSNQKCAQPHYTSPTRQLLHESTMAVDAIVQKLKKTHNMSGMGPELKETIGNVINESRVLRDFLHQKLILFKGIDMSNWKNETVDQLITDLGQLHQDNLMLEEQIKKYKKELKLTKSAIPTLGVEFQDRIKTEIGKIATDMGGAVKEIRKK
Briefly: cross-linking. As to conditions: remark: other sources report otherwise.

No constants are given. Whether binding was seen depends on the method and setting. Some entries that bind do so weakly or less than the wild type.

B1: full-length SPD-5, dephosphorylated (incubated with kinase dead PLK-1), P91349 1-1198 (protein)
chain: MEDNSVLNEDSNLEHVEGQPRRSMSQPVLNVEGDKRTSSTSATQQQVLSGAFSSADVRSIPIIQTWEENKALKTKITILRGELQMYQRRYSEAKEASQKRVKEVMDDYVDLKLGQENVQEKMEQYKLMEEDLLAMQSRIETSEDNFARQMKEFEAQKHAMEERIKELELSATDANNTTVGSFRGTLDDILKKNDPDFTLTSGYEERKINDLEAKLLSEIDKVAELEDHIQQLRQELDDQSARLADSENVRAQLEAATGQGILGAAGNAMVPNSTFMIGNGRESQTRDQLNYIDDLETKLADAKKENDKARQALVEYMNKCSKLEHEIRTMVKNSTFDSSSMLLGGQTSDELKIQIGKVNGELNVLRAENRELRIRCDQLTGGDGNLSISLGQSRLMAGIATNDVDSIGQGNETGGTSMRILPRESQLDDLEESKLPLMDTSSAVRNQQQFASMWEDFESVKDSLQNNHNDTLEGSFNSSMPPPGRDATQSFLSQKSFKNSPIVMQKPKSLHLHLKSHQSEGAGEQIQNNSFSTKTASPHVSQSHIPILHDMQQILDSSAMFLEGQHDVAVNVEQMQEKMSQIREALARLFERLKSSAALFEEILERMGSSDPNADKIKKMKLAFETSINDKLNVSAILEAAEKDLHNMSLNFSILEKSIVSQAAEASRRFTIAPDAEDVASSSLLNASYSPLFKFTSNSDIVEKLQNEVSELKNELEMARTRDMRSPLNGSSGRLSDVQINTNRMFEDLEVSEATLQKAKEENSTLKSQFAELEANLHQVNSKLGEVRCELNEALARVDGEQETRVKAENALEEARQLISSLKHEENELKKTITDMGMRLNEAKKSDEFLKSELSTALEEEKKSQNLADELSEELNGWRMRTKEAENKVEHASSEKSEMLERIVHLETEMEKLSTSEIAADYCSTKMTERKKEIELAKYREDFENAAIVGLERISKEISELTKKTLKAKIIPSNISSIQLVCDELCRRLSREREQQHEYAKVMRDVNEKIEKLQLEKDALEHELKMMSSNNENVPPVGTSVSGMPTKTSNQKCAQPHYTSPTRQLLHESTMAVDAIVQKLKKTHNMSGMGPELKETIGNVINESRVLRDFLHQKLILFKGIDMSNWKNETVDQLITDLGQLHQDNLMLEEQIKKYKKELKLTKSAIPTLGVEFQDRIKTEIGKIATDMGGAVKEIRKK
Take B1: the binding entry is on record as “binds”.
